Results published in publication PMC7819943, “Rice protein-binding microarrays: a tool to detect cis-acting elements near promoter regions in rice”.
Some of the results follow.

Chains of the proteins cited; added tags and fusions are not shown.
UniProt Q0JBA9, entry or part of it: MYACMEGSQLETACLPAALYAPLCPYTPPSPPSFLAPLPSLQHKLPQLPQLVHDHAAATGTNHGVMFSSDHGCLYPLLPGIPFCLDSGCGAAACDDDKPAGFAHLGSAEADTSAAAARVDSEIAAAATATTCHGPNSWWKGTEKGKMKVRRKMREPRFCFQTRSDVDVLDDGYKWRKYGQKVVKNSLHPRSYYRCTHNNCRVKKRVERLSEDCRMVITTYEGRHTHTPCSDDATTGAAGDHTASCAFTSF

Target: OsWRKY34 (Oryza sativa, UniProt Q0JBA9 1-250)
Experiment: protein-binding microarray (RPBM); PBS, 2% BSA, 51.3 ng/ul salmon testes DNA, 50 uM zinc acetate, 200 nM TF, 25 C, 1 h; high values mean tight binding
Conditions: protein: recombinant; tags: N-terminal polyhistidine and DsRed monomer fusion (pET32a); label: CyDye5-dUTP incorporated in the synthesized complementary strand; 3' TTTTT single-stranded linker to array surface; dsDNA, one strand shown
Outline: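 In PBS with 2% BSA, salmon testes DNA and 50 µM zinc acetate, 200 nM protein was incubated on a custom Agilent array at 25 °C for 1 h and then washed off. The array had been made double-stranded by primer extension with Cy5-dUTP and blocked with 2% BSA. The proteins were transcription factors fused N-terminally to polyhistidine and DsRed, expressed in E. coli BL21-CodonPlus and purified on Ni–NTA. The binding signal is per-feature fluorescence intensity (arbitrary units) from an Axon 4000B scanner.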

Row | Sequence | binding signal
1 | CTGCATCTTCCAGCTCAAGTATTATATTGCTTATCGATTTCGGAGTCACCTAGTGCAG | 10200 fluorescence intensity (a.u.)
2 | ACTTTTTCGTCACATCGTTTTAATTTTAACATATTTTTAACGGAGTCACCTAGTGCAG | 8610 fluorescence intensity (a.u.)
3 | GTTCGATGTGACAGGGTGCAAAATTTCGGGGTGGGATCTACGGAGTCACCTAGTGCAG | 13300 fluorescence intensity (a.u.)
4 | GTGACGTGCTGGATTCTTGTCTATTACTCGTAAGATAGTTCGGAGTCACCTAGTGCAG | 9200 fluorescence intensity (a.u.)
5 | CACTCACCAGCTCCTGTTCCTGCTTTACTTGTCGTTGCTGCGGAGTCACCTAGTGCAG | 10900 fluorescence intensity (a.u.)
6 | GCCGCCGCCCGCTTCCTCTCCTCCATCTCCCGAGAGATTTCGGAGTCACCTAGTGCAG | 8280 fluorescence intensity (a.u.)
7 | GTCCTCGCTGCGGTCTTCTCCCTTCCTTCTCCTAGTCTAACGGAGTCACCTAGTGCAG | 11100 fluorescence intensity (a.u.)
8 | TTCTTGGTTTTGAGTTCTCTTCTCGGTTTTCTCTTTAGCGCGGAGTCACCTAGTGCAG | 9000 fluorescence intensity (a.u.)
9 | CACCGCAAACTTTTCTCAGACTAATCACAGTTCCATCAACCGGAGTCACCTAGTGCAG | 8840 fluorescence intensity (a.u.)
10 | TTAAGTTTGTTTGCTTTTGGAAATACCGATTCGTGTTTGACGGAGTCACCTAGTGCAG | 8220 fluorescence intensity (a.u.)
11 | ATAGTATATCACTAGTCTTGGAGTGCAGCCGCGCACTAGTCGGAGTCACCTAGTGCAG | 8120 fluorescence intensity (a.u.)
12 | TATATGTTTGGCGCTCAAAACCTAATAGTAGTTCTTATGTCGGAGTCACCTAGTGCAG | 8300 fluorescence intensity (a.u.)
13 | ACATATTCTTTTTTTTTCCCGATTTTTCTTTTACCGCGTTCGGAGTCACCTAGTGCAG | 12000 fluorescence intensity (a.u.)
14 | GCCATTATTACGGGTCCATGCCAACACATGTGTAACACAACGGAGTCACCTAGTGCAG | 9250 fluorescence intensity (a.u.)
15 | GGAACATCTTCTCCGGTTCTCCCTCACCGCTCACTGGCTCCGGAGTCACCTAGTGCAG | 9960 fluorescence intensity (a.u.)
16 | AATTCTCGTCTTCTCGGAGGTTTCTGAGGGGAGGGAGAGGCGGAGTCACCTAGTGCAG | 8480 fluorescence intensity (a.u.)
17 | TGCTGAATCTTTTTTTTTATTTTTCTATAGTATTATTAAACGGAGTCACCTAGTGCAG | 8040 fluorescence intensity (a.u.)
18 | TTTTTAGCTTTAAGTGCCACGTTAACGTCATGTCATCGAGCGGAGTCACCTAGTGCAG | 10000 fluorescence intensity (a.u.)
19 | AACCAAGCGCCATTCTTGCAAGCGCGATTCCCTTGCCATGCGGAGTCACCTAGTGCAG | 8220 fluorescence intensity (a.u.)
20 | CGCTCGCCCGCCACTGCCGCTCTGCTCAGCCCGCCGCGCACGGAGTCACCTAGTGCAG | 8770 fluorescence intensity (a.u.)
21 | AATATCACTTTGACTTGTTTGGTACTGTCCAATGCCAATACGGAGTCACCTAGTGCAG | 9060 fluorescence intensity (a.u.)
22 | GCTTATGTTGGCTGCTGCATATGATCCGTGCTCCCTGATTCGGAGTCACCTAGTGCAG | 9550 fluorescence intensity (a.u.)
23 | ACCTTCTTTTGCTGTTAATCACGGTTAGGTTTGAGTTAATCGGAGTCACCTAGTGCAG | 9070 fluorescence intensity (a.u.)
24 | GTGTAGATCTATCTCTTGTATGCGAGTCAACACTAATCATCGGAGTCACCTAGTGCAG | 8170 fluorescence intensity (a.u.)
25 | ATCAAGGACTAACCATGCCATCCCACGATCCGATCCCTGCCGGAGTCACCTAGTGCAG | 8390 fluorescence intensity (a.u.)
26 | CCTATCCTCTGCAGCTGCACACCTCTAGTATATAGCTGACCGGAGTCACCTAGTGCAG | 9060 fluorescence intensity (a.u.)
27 | GAGGGCCCCTCGTCGGGGTCAATGGGCGGTGGGGCCAGACCGGAGTCACCTAGTGCAG | 10000 fluorescence intensity (a.u.)

A few values from above.
binding signal with GTTCGATGTGACAGGGTGCAAAATTTCGGGGTGGGATCTACGGAGTCACCTAGTGCAG is entered as 13300 fluorescence intensity (a.u.)
binding signal with ACTTTTTCGTCACATCGTTTTAATTTTAACATATTTTTAACGGAGTCACCTAGTGCAG is entered as 8610 fluorescence intensity (a.u.)

Remaining list, next part:

Row | Sequence | binding signal
28 | ATCTAGTTGTATTGTTGGGTCCTATATGCTTCACATCACTCGGAGTCACCTAGTGCAG | 9940 fluorescence intensity (a.u.)
29 | TGCAGCACGGGGTAGTTGGGTTGGGTCCGGACGCGGCGCGCGGAGTCACCTAGTGCAG | 8830 fluorescence intensity (a.u.)
30 | ATAGGGTTCATTGAAATATCATAAGCTTCTATTGTTGTAACGGAGTCACCTAGTGCAG | 8350 fluorescence intensity (a.u.)
31 | TTTTATCGTACATGCTACAGTGCCTACTTGTGTATTAATTCGGAGTCACCTAGTGCAG | 8280 fluorescence intensity (a.u.)
32 | CTAGGTCGAGGTAGGGCTCGGTTTCCTCGCATCTTGCAACCGGAGTCACCTAGTGCAG | 8140 fluorescence intensity (a.u.)
33 | GCTGTTCGTTCATGATCTTGTTCCATTCTACAGGGGTCGTCGGAGTCACCTAGTGCAG | 9330 fluorescence intensity (a.u.)
34 | TACTACCACTAAATATCTAGCATCCTTATCCTCTTCTTTGCGGAGTCACCTAGTGCAG | 10900 fluorescence intensity (a.u.)
35 | TACTTCCTGATCGAAGCATCTTATCTCTAGCTGTCCCATACGGAGTCACCTAGTGCAG | 8870 fluorescence intensity (a.u.)
36 | GTACTTTATCTTATAACATTTTATTTTGAATCGATTAGGACGGAGTCACCTAGTGCAG | 8170 fluorescence intensity (a.u.)
37 | CTCCTCTGAACCGCCATCAGCCACCACCTCTCGCCGCCTACGGAGTCACCTAGTGCAG | 13600 fluorescence intensity (a.u.)
38 | GGCGATGTGCTGCTTTAATTTGGCGATCCGGTTAAGGAGACGGAGTCACCTAGTGCAG | 8070 fluorescence intensity (a.u.)
39 | CCCTTAATTAATTAAAACCGGTCACAGTATGTCCTTTAATCGGAGTCACCTAGTGCAG | 10700 fluorescence intensity (a.u.)
40 | CATGCATCCATATTAGATTGTTTGCGAAATTAATTATTCACGGAGTCACCTAGTGCAG | 8470 fluorescence intensity (a.u.)
41 | ACTCTCGACTACTTGGCTTCTAATTTACAGTAATTTTATCCGGAGTCACCTAGTGCAG | 10300 fluorescence intensity (a.u.)
42 | GCCGCCTCGCCTCGCCGCCGCCTCGCCTCCTCCGCGAGCACGGAGTCACCTAGTGCAG | 9630 fluorescence intensity (a.u.)
43 | AATTTGAATCCATGTTGCTGTCTCGTTATTGGTGTGTTACCGGAGTCACCTAGTGCAG | 11800 fluorescence intensity (a.u.)
44 | GCCACCTCGCCCCATCACCCTCTCCCTCCACCACACTACACGGAGTCACCTAGTGCAG | 8070 fluorescence intensity (a.u.)
45 | TCATCGGTGCGGATCGGGCGTATTCTCTTTCGTCATACCTCGGAGTCACCTAGTGCAG | 10200 fluorescence intensity (a.u.)
46 | ACTCTGTTTGATCCATTTGAGGGGAAGAGGGGCCAAGGTTCGGAGTCACCTAGTGCAG | 9560 fluorescence intensity (a.u.)
47 | ACATATCTCTCGCTCACTTGCTTGCTTGCTTACGTCTCTCCGGAGTCACCTAGTGCAG | 9970 fluorescence intensity (a.u.)
48 | GCTGCAGCACTGCACGCGTTCCTGCTCCTTGTGTTCCTCTCGGAGTCACCTAGTGCAG | 9620 fluorescence intensity (a.u.)
49 | ATGTAATATGGGTGATTTATACTCTCTCCGTTTCAACTTACGGAGTCACCTAGTGCAG | 9250 fluorescence intensity (a.u.)
50 | ACCCACACCTCGTCCCCGTCACCTCCTATATCATCGTCATCGGAGTCACCTAGTGCAG | 11700 fluorescence intensity (a.u.)
51 | TGGGCGGGCGAGGAGGTGTGTCACGTCAGGATTTTGATACCGGAGTCACCTAGTGCAG | 8350 fluorescence intensity (a.u.)
52 | TTCTTTTCGGTTGATTGTTTTTCTTTGTATTTCAGTGTTGCGGAGTCACCTAGTGCAG | 9180 fluorescence intensity (a.u.)
53 | AACCGCCGATCTCCACCGTCCACGTACCCCGGCCGACCAACGGAGTCACCTAGTGCAG | 11100 fluorescence intensity (a.u.)
54 | TAAAAATTCAAACCTTCTACACTGGTACACACGTTCTCTCCGGAGTCACCTAGTGCAG | 8340 fluorescence intensity (a.u.)
